Source: article PMC13572447
No constants are given. Whether binding was seen depends on the method and setting. For some of these results: Binding seen in cells or lysates may run through a third protein. For some of these results: Sequences can lack the tags named with a protein. Some results given as binding are weak or reduced against the parent protein; the word gives no strength.

Amino acid sequences for entries named in this document (tags omitted). A change or cut given only in a name is not applied to a line headed by its entry.
UniProt P45974: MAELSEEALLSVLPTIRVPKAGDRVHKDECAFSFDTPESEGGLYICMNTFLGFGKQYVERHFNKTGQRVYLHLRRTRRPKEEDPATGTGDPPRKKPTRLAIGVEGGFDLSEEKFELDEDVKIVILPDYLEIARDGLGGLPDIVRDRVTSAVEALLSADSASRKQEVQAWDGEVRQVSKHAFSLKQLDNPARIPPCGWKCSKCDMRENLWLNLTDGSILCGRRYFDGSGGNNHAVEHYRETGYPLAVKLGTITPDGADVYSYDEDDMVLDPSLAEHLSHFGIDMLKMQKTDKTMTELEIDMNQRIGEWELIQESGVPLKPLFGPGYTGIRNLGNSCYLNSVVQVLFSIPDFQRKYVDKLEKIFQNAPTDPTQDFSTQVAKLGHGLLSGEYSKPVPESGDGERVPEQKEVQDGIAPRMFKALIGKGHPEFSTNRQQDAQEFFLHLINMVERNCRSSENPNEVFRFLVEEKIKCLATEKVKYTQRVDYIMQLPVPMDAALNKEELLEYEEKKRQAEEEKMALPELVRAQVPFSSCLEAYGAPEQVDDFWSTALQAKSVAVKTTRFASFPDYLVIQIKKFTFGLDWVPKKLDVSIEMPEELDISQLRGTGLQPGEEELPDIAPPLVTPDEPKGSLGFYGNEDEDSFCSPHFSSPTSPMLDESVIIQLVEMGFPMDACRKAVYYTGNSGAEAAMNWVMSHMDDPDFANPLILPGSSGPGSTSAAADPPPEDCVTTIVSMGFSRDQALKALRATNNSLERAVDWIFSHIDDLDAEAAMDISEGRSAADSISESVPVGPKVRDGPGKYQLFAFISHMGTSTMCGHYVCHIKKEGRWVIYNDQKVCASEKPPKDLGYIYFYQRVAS
UniProt Q93009: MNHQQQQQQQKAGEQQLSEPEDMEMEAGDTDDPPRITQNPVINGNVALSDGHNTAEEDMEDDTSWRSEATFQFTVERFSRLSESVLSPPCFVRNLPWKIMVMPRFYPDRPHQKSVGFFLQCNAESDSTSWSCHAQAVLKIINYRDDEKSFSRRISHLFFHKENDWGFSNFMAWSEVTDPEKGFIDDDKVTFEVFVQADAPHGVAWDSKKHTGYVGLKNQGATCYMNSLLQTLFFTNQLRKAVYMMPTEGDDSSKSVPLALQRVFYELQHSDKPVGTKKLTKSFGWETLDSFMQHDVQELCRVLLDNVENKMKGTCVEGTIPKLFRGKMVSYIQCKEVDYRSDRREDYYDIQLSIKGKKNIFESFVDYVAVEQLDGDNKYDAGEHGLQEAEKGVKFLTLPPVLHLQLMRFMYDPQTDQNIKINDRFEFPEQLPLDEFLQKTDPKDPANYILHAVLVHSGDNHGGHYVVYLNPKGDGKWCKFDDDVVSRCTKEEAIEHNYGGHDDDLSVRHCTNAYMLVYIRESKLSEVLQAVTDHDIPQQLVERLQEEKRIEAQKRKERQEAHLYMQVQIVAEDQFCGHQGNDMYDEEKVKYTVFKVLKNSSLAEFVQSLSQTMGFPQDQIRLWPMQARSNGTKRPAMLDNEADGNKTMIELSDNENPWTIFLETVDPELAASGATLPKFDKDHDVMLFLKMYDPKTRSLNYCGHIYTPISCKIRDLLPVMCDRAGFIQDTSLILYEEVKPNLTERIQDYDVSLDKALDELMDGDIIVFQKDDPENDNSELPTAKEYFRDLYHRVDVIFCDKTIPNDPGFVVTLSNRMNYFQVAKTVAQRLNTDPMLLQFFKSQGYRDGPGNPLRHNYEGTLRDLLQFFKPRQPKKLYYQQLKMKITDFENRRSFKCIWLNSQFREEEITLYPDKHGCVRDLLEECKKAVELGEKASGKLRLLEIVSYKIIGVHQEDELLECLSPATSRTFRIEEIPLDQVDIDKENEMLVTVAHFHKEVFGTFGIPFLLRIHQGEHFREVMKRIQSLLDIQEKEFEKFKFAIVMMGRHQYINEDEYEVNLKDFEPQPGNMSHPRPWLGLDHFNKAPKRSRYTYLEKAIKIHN

Tests used:
[1] = molecular target: catalytically inactive USP5 C335A, recombinant (human) (UniProt P45974); assay: FRET or BRET; TR-FRET: Cy5 labelled SDE2 or Ub constructs titrated into His-tagged USP5 with Eu labelled anti-His6 antibody (2 nM); 20 mM HEPES, 150 mM NaCl, 1 mM TCEP, 0.5% DMSO, 0.05% Tween-20, pH 7.5; 1 h at room temperature; both purified
[2] = molecular target: catalytically inactive USP5 C335A, recombinant (human) (UniProt P45974); assay: ITC; SDE2 construct or Ub titrated into USP5 construct; ITC200, 298 K; 50 mM HEPES, 100 mM NaCl, 1 mM TCEP, pH 7.5; duplicate experiments; both purified
[3] = molecular target: T1, HA-SDE2UBL-PA activity-based probe (human) (UniProt Q6IQ49); assay: co-IP; HEK293 lysate (500 µg) with 1 µM HA-SDE2UBL-PA, 45 min at 37 °C, quenched with 0.4% SDS and 0.5% NP-40, anti-HA magnetic beads, immunoblot for USP5, USP13 and HA; covalent adducts; only the target purified
T1 sequence (chain, C-terminal propargylamide, Gly77 replaced with a propargyl electrophilic warhead): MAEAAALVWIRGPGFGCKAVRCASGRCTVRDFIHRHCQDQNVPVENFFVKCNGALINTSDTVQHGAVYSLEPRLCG

[4] = molecular target: USP5 H232A, recombinant (human) (UniProt P45974); assay: ITC; SDE2 construct or Ub titrated into USP5 construct; ITC200, 298 K; 50 mM HEPES, 100 mM NaCl, 1 mM TCEP, pH 7.5; duplicate experiments; both purified
[5] = molecular target: T2, USP13 (318-862), recombinant truncated USP13 (UniProt Q92995); assay: activity-based probe labelling (covalent adduct on SDS-PAGE); purified DUB 1 µM with probe 2 µM in 50 mM Tris pH 7.5, 1 mM DTT, 37 °C; quenched with LDS/DTT; shows only the covalent probe-enzyme adduct as a band shift; both purified
T2 sequence: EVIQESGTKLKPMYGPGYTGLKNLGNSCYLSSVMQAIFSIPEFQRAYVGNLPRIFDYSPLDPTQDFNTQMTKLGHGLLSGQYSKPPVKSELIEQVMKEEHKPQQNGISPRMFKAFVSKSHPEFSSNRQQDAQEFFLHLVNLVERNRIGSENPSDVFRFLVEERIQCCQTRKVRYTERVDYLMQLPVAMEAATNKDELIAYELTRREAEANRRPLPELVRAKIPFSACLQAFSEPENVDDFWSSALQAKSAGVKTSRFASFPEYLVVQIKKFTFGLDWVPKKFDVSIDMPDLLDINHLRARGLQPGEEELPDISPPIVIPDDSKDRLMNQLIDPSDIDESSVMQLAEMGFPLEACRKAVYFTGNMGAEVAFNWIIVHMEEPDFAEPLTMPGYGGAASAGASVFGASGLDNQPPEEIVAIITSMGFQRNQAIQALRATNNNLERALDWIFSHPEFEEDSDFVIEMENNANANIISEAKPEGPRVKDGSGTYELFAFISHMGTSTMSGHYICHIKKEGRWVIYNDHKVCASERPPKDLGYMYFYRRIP

[6] = molecular target: USP7, recombinant (human) (UniProt Q93009); assay: as above

B1: Cy5 labelled SDE2UBL (domain or fragment, UniProt Q6IQ49-1 1-77)
chain: MAEAAALVWIRGPGFGCKAVRCASGRCTVRDFIHRHCQDQNVPVENFFVKCNGALINTSDTVQHGAVYSLEPRLCGG
modifications: Cy5 label, site not stated
Q: For B1, which binding [1] is on record?
A: Its binding is “binds”.

B2: SDE2 C-terminal domain, SDE2CT(78-451) (domain or fragment, UniProt Q6IQ49-1 78-451)
chain: KGGFGSMLRALGAQIEKTTNREACRDLSGRRLRDVNHEKAMAEWVKQQAEREAEKEQKRLERLQRKLVEPKHCFTSPDYQQQCHEMAERLEDSVLKGMQAASSKMVSAEISENRKRQWPTKSQTDRGASAGKRRCFWLGMEGLETAEGSNSESSDDDSEEAPSTSGMGFHAPKIGSNGVEMAAKFPSGSQRARVVNTDHGSPEQLQIPVTDSGRHILEDSCAELGESKEHMESRMVTETEETQEKKAESKEPIEEEPTGAGLNKDKETEERTDGERVAEVAPEERENVAVAKLQESQPGNAVIDKETIDLLAFTSVAELELLGLEKLKCELMALGLKCGGTLQERAARLFSVRGLAKEQIDPALFAKPLKGKKK
Q: With B2 as the binder, how does the binding [2] read?
A: Its binding is “no binding”.

B3: endogenous USP13 of HEK293 cell lysate (enzyme, UniProt Q92995 1-863)
chain: MQRRGALFGMPGGSGGRKMAAGDIGELLVPHMPTIRVPRSGDRVYKNECAFSYDSPNSEGGLYVCMNTFLAFGREHVERHFRKTGQSVYMHLKRHVREKVRGASGGALPKRRNSKIFLDLDTDDDLNSDDYEYEDEAKLVIFPDHYEIALPNIEELPALVTIACDAVLSSKSPYRKQDPDTWENELPVSKYANNLTQLDNGVRIPPSGWKCARCDLRENLWLNLTDGSVLCGKWFFDSSGGNGHALEHYRDMGYPLAVKLGTITPDGADVYSFQEEEPVLDPHLAKHLAHFGIDMLHMHGTENGLQDNDIKLRVSEWEVIQESGTKLKPMYGPGYTGLKNLGNSCYLSSVMQAIFSIPEFQRAYVGNLPRIFDYSPLDPTQDFNTQMTKLGHGLLSGQYSKPPVKSELIEQVMKEEHKPQQNGISPRMFKAFVSKSHPEFSSNRQQDAQEFFLHLVNLVERNRIGSENPSDVFRFLVEERIQCCQTRKVRYTERVDYLMQLPVAMEAATNKDELIAYELTRREAEANRRPLPELVRAKIPFSACLQAFSEPENVDDFWSSALQAKSAGVKTSRFASFPEYLVVQIKKFTFGLDWVPKKFDVSIDMPDLLDINHLRARGLQPGEEELPDISPPIVIPDDSKDRLMNQLIDPSDIDESSVMQLAEMGFPLEACRKAVYFTGNMGAEVAFNWIIVHMEEPDFAEPLTMPGYGGAASAGASVFGASGLDNQPPEEIVAIITSMGFQRNQAIQALRATNNNLERALDWIFSHPEFEEDSDFVIEMENNANANIISEAKPEGPRVKDGSGTYELFAFISHMGTSTMSGHYICHIKKEGRWVIYNDHKVCASERPPKDLGYMYFYRRIPS
Q: With B3 as the binder, how does the binding [3] read?
A: Its binding is “no binding (tested: probe 1 µM)”.

B4: SDE2 ubiquitin-like domain, SDE2UBL(1-77) (domain or fragment, UniProt Q6IQ49-1 1-77)
chain: MAEAAALVWIRGPGFGCKAVRCASGRCTVRDFIHRHCQDQNVPVENFFVKCNGALINTSDTVQHGAVYSLEPRLCGG
Q: With B4 as the binder, how does the binding [4] read?
A: Its binding is “no binding”.

B5: Cy5 labelled SDE2CT (domain or fragment, UniProt Q6IQ49-1 78-451)
chain: KGGFGSMLRALGAQIEKTTNREACRDLSGRRLRDVNHEKAMAEWVKQQAEREAEKEQKRLERLQRKLVEPKHCFTSPDYQQQCHEMAERLEDSVLKGMQAASSKMVSAEISENRKRQWPTKSQTDRGASAGKRRCFWLGMEGLETAEGSNSESSDDDSEEAPSTSGMGFHAPKIGSNGVEMAAKFPSGSQRARVVNTDHGSPEQLQIPVTDSGRHILEDSCAELGESKEHMESRMVTETEETQEKKAESKEPIEEEPTGAGLNKDKETEERTDGERVAEVAPEERENVAVAKLQESQPGNAVIDKETIDLLAFTSVAELELLGLEKLKCELMALGLKCGGTLQERAARLFSVRGLAKEQIDPALFAKPLKGKKK
modifications: Cy5 label, site not stated
Q: With B5 as the binder, how does the binding [1] read?
A: Its binding is “no binding”.

B6: HA-SDE2UBL-PA activity-based probe (domain or fragment, UniProt Q6IQ49-1 1-76)
chain: MAEAAALVWIRGPGFGCKAVRCASGRCTVRDFIHRHCQDQNVPVENFFVKCNGALINTSDTVQHGAVYSLEPRLCG
modifications: C-terminal propargylamide: Gly77 replaced with a propargyl electrophilic warhead
Q: Which results are given for B6?
A: binding [5]: no binding (tested: probe 2 µM, DUB 1 µM); binding [6]: no binding
